Values of other authors in patent publication US20080241211A1, “DEVICE WHICH ENHANCES THE BIOLOGICAL ACTIVITY OF LOCALLY APPLIED GROWTH FACTORS WITH PARTICULAR EMPHASIS ON THOSE USED FOR BONE REPAIR” (University of Southern California, priority 2007, published 2008).
At least one compound was matched to its structure with a doubt left.

Conditions: female rats; cited from earlier work

SMILES: C[C@@H]1O[C@@H](OC[C@H]2O[C@@H](Oc3c(-c4ccc(O)c(O)c4)oc4cc(O)cc(O)c4c3=O)[C@H](O)[C@@H](O)[C@@H]2O)[C@H](O)[C@H](O)[C@H]1O [rutin]
- ovariectomy-induced osteopenia: inhibits ovariectomy-induced osteopenia
